What all share (test): co-IP; RIPA lysate (80 ug protein) of NSCLC cells; IP with anti-EGFR (CST #2085), anti-NK1R (Abcam ab183713) or IgG at 4 °C overnight, protein A+G agarose beads 3 h at 4 °C, washed with PBS three times, immunoblot; cells untreated, treated with hHK-1 or aprepitant for 24 h, or overexpressing NK1R
Assay [1] addresses Neurokinin-1 receptor (human (endogenous in A549 and NCI-H1944)) (UniProt P25103).
Assay [2] has as its target Neurokinin-1 receptor, overexpressed (UniProt P25103).
Assay [3] has as its target EGFR/L858R/T790M (human (endogenous in NCI-H1975)) (UniProt P00533).
The target of assay [4] is Epidermal growth factor receptor (human (endogenous in A549 and NCI-H1944)) (UniProt P00533).

Protein sequences, listed by entry. Tags and fused reporters are not part of them.
UniProt P25103: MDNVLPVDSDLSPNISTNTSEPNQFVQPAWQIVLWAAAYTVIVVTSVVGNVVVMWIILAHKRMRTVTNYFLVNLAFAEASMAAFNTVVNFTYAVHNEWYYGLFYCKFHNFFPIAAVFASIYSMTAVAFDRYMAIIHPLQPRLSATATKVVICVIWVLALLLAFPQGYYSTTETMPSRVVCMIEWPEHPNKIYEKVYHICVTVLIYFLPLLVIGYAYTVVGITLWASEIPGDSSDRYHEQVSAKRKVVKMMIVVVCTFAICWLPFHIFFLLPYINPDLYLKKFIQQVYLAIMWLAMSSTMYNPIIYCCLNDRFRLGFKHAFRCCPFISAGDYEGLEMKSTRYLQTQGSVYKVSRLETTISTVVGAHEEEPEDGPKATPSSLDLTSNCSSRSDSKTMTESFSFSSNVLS

Results are given in words; binding and its absence hold for the method and conditions named. Binding seen in cells or lysates may run through a third protein. Some entries that bind do so weakly or less than the wild type.

For the substance “Epidermal growth factor receptor (from UniProt P00533 25-1210)”, the binding result in assay [1] and in assay [2] was “binds” in each case.
With “Neurokinin-1 receptor (from UniProt P25103 1-407)”, the binding result in assay [3] and in assay [4] was “binds” throughout.

Values taken from paper PMC8748918.
